Our source for the cell number change and AC50 values is PubChem BioAssay AID2685 (National Center for Advancing Translational Sciences (NCATS), 2010).

By AC50 is commonly meant the midpoint of the concentration-response curve, whichever way the signal moves.

This assay is described as follows: qHTS Assay for Lipid Storage Modulators in Drosophila S3 Cells.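 For cell number change: cells counted by Cell Tracker Red CMTPX staining in the red channel.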 As to conditions: BODIPY lipid droplet fluorescence, 18-24 h; for cell number change: measured here: cell count max response, cells fed with added oleic acid. The essentials:
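Laser-scanning cytometry quantifies lipid droplet accumulation (500–530 nm total intensity; droplet/cell object ratio) in oleic acid-fed (400 uM added) Drosophila S3 cells treated with a concentration series. 20 uM Triacsin C defined 100% inhibition.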
For orientation: Quantitative high-throughput screening tests each substance at several concentrations.

The mark [1] stands for this setting: measured here: lipid fluorescence (Fed channel) AC50, cells fed with added oleic acid.
The mark [2] stands for this setting: measured here: cell number channel AC50, cells fed with added oleic acid.

The other results are listed elsewhere or left out. The main result of the screen is listed elsewhere. These columns were measured beside it and carry no call. The list favours compounds with an active or inconclusive main result. The note in brackets gives the kind of curve behind each potency; many fits are weak.

Consider `COCCNC(=O)C1(C)Oc2ccccc2NC1=O` (stereo not drawn), for which the cell number change was -18.7%. The AC50 under setting [1] is 2.31 µM [falling, full curve]. `COc1ccc(CCC(=O)NCc2cccc(C(F)(F)F)c2)cc1`: the cell number change was found to be 12.2%.

On to `COc1ccccc1C(=O)Nc1nnn(C)n1`, for which the cell number change is -0.977%. In the case of `CC1=NN(c2ccccc2)C(=O)C1(C)[N+](=O)[O-]` (stereo not drawn), the cell number change was found to be 4.15%. Besides, the AC50 under setting [1] was 0.291 µM [rising, full curve, poor fit].

In the case of `CN1CCN(S(=O)(=O)c2cccc(C(=O)Nc3ccccc3N3CCCCC3)c2)CC1`, the cell number change was 29.5%. Moreover, the AC50 under setting [1] was 20.6 µM [rising, partial curve].

In the case of `CCCOc1ccc(-c2c(C(=O)N/N=C(\C)COc3ccccc3)nnn2-c2nonc2N)cc1`, the cell number change is -11.9%. The AC50 under setting [1] is 0.13 µM [rising, full curve, poor fit]. Regarding `Cn1c(=O)n(C)c2cc(N3CCCCC3)c(NC(=O)c3cccc(Cl)c3)cc21`, the cell number change is -12.3%.

Take `COC(=O)C1C(=O)c2c(n[nH]c2C)CC1(C)C` (stereo not drawn): the cell number change was 29%. Under setting [1], the AC50 was 25.9 µM [rising, single point].

Take `COC(=O)C1CCN(C(=O)COC(=O)c2ccc(=O)n(Cc3ccccc3)n2)CC1`: the cell number change was 7.41%. Under setting [1], the AC50 was 0.731 µM [falling, full curve].

For the compound `O=C(CN1C(=O)C2CCCCC2C1=O)Nc1ccccc1C(=O)O` (stereo not drawn), the AC50 under setting [1] was 20.6 µM [rising, partial curve].

As to `COc1ccc(/C=N/n2c(C)nc3ccccc3c2=O)cc1`, the cell number change is -6.85%. The AC50 under setting [1] is 8.2 µM [falling, partial curve, poor fit].

Turning to `Cn1c(SCc2nc3ccccc3[nH]2)nnc1-c1cnccn1`, the cell number change was -7.8%. For `CCN(CC(=O)NC1CCS(=O)(=O)C1)S(=O)(=O)c1ccc(C)c(C)c1` (stereo not drawn), the cell number change came to 133%. Besides, the AC50 under setting [2] is 20.6 µM [rising, single point].

Regarding `CC(=O)N1CCN(S(=O)(=O)c2cccc(C(=O)NCCc3ccc(Cl)cc3)c2)CC1`, the half-maximal activity concentration (AC50) under setting [1] was 0.651 µM [falling, single point]. With `CCC(=O)c1cc(F)ccc1OCC(=O)Nc1ccc2c(c1)OCCO2`, the cell number change was 8.2%. Also, the AC50 under setting [1] is 25.9 µM [falling, partial curve, poor fit]. Regarding `Cc1cc(C)n(-c2nc(SCCN(C)C)c3c4c(sc3n2)CCCC4)n1`, the cell number change is -22.9%. The AC50 under setting [1] was 6.51 µM [falling, single point]. As to `Cc1c(C(=O)NCc2ccccc2CN2CCCC2)oc2ccc(F)cc12`, the cell number change amounted to 13.3%. In addition, the half-maximal activity concentration (AC50) under setting [1] was 29.1 µM [rising, single point]. For the compound `CCOc1ccc(NS(=O)(=O)c2cc(C(=O)N3CCN(c4ccccc4O)CC3)ccc2Cl)cc1`, the cell number change was 48.1%. In addition, the AC50 under setting [2] was 9.2 µM [rising, partial curve, poor fit].

Consider `CCN(CC)c1ccc(C(=O)NNC(=O)C2CSC3(C)CCC(=O)N23)cc1` (stereo not drawn), for which the cell number change is -2.2%. Besides, the AC50 under setting [1] was 0.651 µM [rising, full curve, poor fit].

For the compound `CO/N=C/c1ccc(N2CCCC2)c([N+](=O)[O-])c1`, the cell number change was -16.4%. Further, the AC50 under setting [2] was 0.00461 µM [rising, full curve, poor fit]. As to `COc1ccc(Cl)cc1NC(=S)NCc1ccc(S(N)(=O)=O)cc1`, the cell number change is -19.3%. `CC(=O)c1cccc(NC(=O)Cn2nc(-c3ccccc3Cl)ccc2=O)c1`: the cell number change is -7.45%.

`O=S(=O)(c1ccc(NC(=S)NCCc2ccccc2)cc1)N1CCOCC1`: the cell number change was 24.2%. For the same compound, the AC50 under setting [1] is 2.59 µM [rising, full curve]. With `Cc1nc2sccn2c(=O)c1Cl`, the cell number change is -9.51%. Besides, the half-maximal activity concentration (AC50) under setting [1] is 0.00461 µM [rising, full curve, poor fit].

For the compound `CC(C)CN(C(=O)C1CCCO1)c1c(N)n(CC(C)C)c(=O)[nH]c1=O` (stereo not drawn), the cell number change was -86.6%. The AC50 under setting [2] was 5.8 µM [falling, full curve]. In addition, under setting [1], the AC50 was 1.03 µM [falling, partial curve]. For the compound `Cc1ccc(CNC(=O)c2ccccc2N)cc1`, the cell number change came out at 13.6%. Further, under setting [1], the concentration at half-maximal activity (AC50) was 29.1 µM [rising, single point]. In the case of `COC(=O)CCC(=O)Nc1ccc(S(=O)(=O)Nc2nc(C)cc(C)n2)cc1`, the cell number change turned out to be 23%. Under setting [1], the AC50 is 29.1 µM [rising, single point]. As to `O=C(COC(=O)c1ccccc1OCc1ccccc1Cl)NC1CC1`, the cell number change was -1.67%. Regarding `O=C(NC1CCN(C(=O)Nc2cccc(Cl)c2)CC1)c1ccccc1`, the cell number change was 3.91%. Moreover, the AC50 under setting [1] is 6.51 µM [rising, single point]. On to `COc1cccc(-c2nc(-c3ccccc3)c(-c3ccccc3)[nH]2)c1OCC(=O)O`, for which the cell number change was -7.72%.

Take `Cc1ccc(Nc2c([N+](=O)[O-])c(=O)n(C)c3ccccc23)cc1C`: the AC50 under setting [1] was 0.92 µM [rising, full curve]. As for `CCN(CC(=O)Nc1cccc(F)c1)CC(=O)Nc1ccccc1OC`, the cell number change is 30.5%. Besides, the AC50 under setting [2] is 0.164 µM [rising, partial curve, poor fit]. Besides, the AC50 under setting [1] is 29.1 µM [rising, partial curve, poor fit]. As for `O=C(CCc1nnc(CCCCc2ccccc2)o1)NCCN1CCOC1=O`, the cell number change was -48.9%. In addition, the AC50 under setting [2] was 20.6 µM [falling, partial curve]. Moreover, the AC50 under setting [1] is 20.6 µM [falling, single point]. Consider `O=C(NNC(=S)NC(=O)c1cccc([N+](=O)[O-])c1)c1ccc(Br)cc1`, for which the cell number change was determined as 5.41%. As to `CC(C)C(=O)Nc1cccc(NC(=S)NC(=O)c2cccs2)c1`, the cell number change came out at 22.4%. Further, the AC50 under setting [1] was 0.651 µM [rising, single point]. With `O=C(Nc1ccc(Cl)c(Cl)c1)Nc1ccc([N+](=O)[O-])cn1`, the cell number change is -24.7%. In addition, the AC50 under setting [1] is 29.1 µM [falling, single point]. For the compound `CC(C)CNC(=O)COC(=O)c1c2c(nc3ccccc13)/C(=C/c1cccs1)CC2`, the cell number change is -43%. Under setting [2], the AC50 is 0.58 µM [falling, full curve]. Also, the AC50 under setting [1] is 0.651 µM [falling, full curve].

As for `O=C(NCCCn1ccnc1)/C(=C\c1cccnc1)NC(=O)c1ccccc1Br`, the cell number change stood at 1.88%. For `CCn1nc(C)c(NC(=O)c2ccc(Br)o2)c1C`, the cell number change was -21.8%. Besides, under setting [1], the AC50 is 29.1 µM [rising, single point]. As for `COc1cc(C(=O)Nc2cc(C)ccn2)cc(OC)c1OC`, the AC50 under setting [1] was 0.13 µM [falling, full curve, poor fit]. As to `Cc1ccc(-c2ccc(CCC(=O)O)n2CC2CCCO2)cc1` (stereo not drawn), the cell number change was found to be 25%. Also, under setting [1], the AC50 was 1.16 µM [rising, full curve, poor fit]. Regarding `O=C(O)c1ccc(S(=O)(=O)Nc2ccc3c(c2)OCCO3)cc1`, the cell number change was -19.8%.
